Values quoted from earlier work, collected in patent US12178907B2, “Binary lipid bilayer-containing vesicles comprising embedded cytotoxic agents and methods of making and using the same” (The USA, as represented by the Secretary, Department of …, priority 2018, dated 2024).
At least one structure is not confirmed: it was looked up by name or label, or the drawing left a doubt.

Details: cited from earlier work

CCCCCCOC(C)c1c(C)c2cc3nc(c4c5[nH]c(cc6nc(cc1[nH]2)C(C)=C6CC)c(C)c5C(=O)C4)[C@@H](CCC(=O)O)[C@@H]3C (stereo partly shown) [HPPH, 2-[1-hexyloxyethyl]-2-devinyl pyropheophorbide-a]
singlet oxygen yield: 0.48
